Assay results as given in PubChem BioAssay AID1671190 (National Center for Advancing Translational Sciences (NCATS), 2021).
Hit rate of the full screen: of about 580,000 compounds, about 6,100 (1.1%) were called active. Inconclusive results, whose numbers are uncertain, are shown with a selection of clear calls. Calls follow the shape of the dose curve; as a rule, active = well fitted inhibition curve with a large enough effect; inconclusive = small, poorly fitted or top-dose-only effect, or another doubt; inactive = no such curve, though single readings can be large or run the other way. Potencies of inconclusive entries are doubtful fits and often do not repeat.

Sequences of proteins named here, by UniProt entry; tags and fusion partners are left off. A change or cut given only in a name is not applied to a line headed by its entry.
UniProt P18054: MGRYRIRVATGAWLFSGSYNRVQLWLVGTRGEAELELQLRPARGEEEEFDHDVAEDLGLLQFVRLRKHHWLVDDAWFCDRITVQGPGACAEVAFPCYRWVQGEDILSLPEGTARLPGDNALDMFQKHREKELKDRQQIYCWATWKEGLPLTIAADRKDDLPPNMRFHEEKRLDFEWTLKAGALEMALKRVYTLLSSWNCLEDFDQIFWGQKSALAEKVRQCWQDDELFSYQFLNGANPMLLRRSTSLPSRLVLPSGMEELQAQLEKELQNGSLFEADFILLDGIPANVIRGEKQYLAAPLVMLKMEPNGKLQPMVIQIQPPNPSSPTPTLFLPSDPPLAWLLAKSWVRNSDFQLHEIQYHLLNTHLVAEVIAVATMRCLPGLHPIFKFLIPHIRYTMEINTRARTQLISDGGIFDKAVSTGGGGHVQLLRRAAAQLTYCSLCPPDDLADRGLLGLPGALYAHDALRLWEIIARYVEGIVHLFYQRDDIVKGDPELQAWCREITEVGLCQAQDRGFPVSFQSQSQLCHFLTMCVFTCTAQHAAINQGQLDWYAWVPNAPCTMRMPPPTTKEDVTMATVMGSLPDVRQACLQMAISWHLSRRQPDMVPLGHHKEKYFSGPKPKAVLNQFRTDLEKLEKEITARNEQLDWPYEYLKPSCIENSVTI

Biological target: Polyunsaturated fatty acid lipoxygenase ALOX12 (Homo sapiens) (UniProt P18054)
Assay: Primary qHTS assay for inhibitors of human arachidonate 12S-lipoxygenase (ALOX12): Round 2
Conditions: purified 12hLO, xylenol orange hydroperoxide absorbance; series mostly up to 108 µM
Summary of the method: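 Purified human 12hLO (150 nM final) in 25 mM Hepes, 0.01% Triton X-100, pH 7.0 was preincubated 15 min at room temperature with compound. Then 40 uM arachidonic acid was added, 30 min. Hydroperoxide was read by Fe-XO absorbance ratio 573/405 nm.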
Potency is read from the fitted curve at half-maximal effect.

| SMILES | Potency |
| --- | --- |
| CCOc1ccccc1N(CC(=O)N1CCN(C)CC1)S(=O)(=O)c1ccc(Cl)cc1 | inconclusive: 0.251 µM [inhibitor, full curve, poor fit] |
| COc1ccc(/C=C/C(=O)N(CC(C)C)C2CCS(=O)(=O)C2)cc1 (stereo not given) | inactive |
| CC(C)c1ccc(NC(=O)c2nc3ccccc3n(C)c2=O)cc1 | inconclusive: 0.631 µM [inhibitor, full curve, poor fit] |
| CCC(C)NS(=O)(=O)c1ccc(NC(=O)C2CCN(C(=O)c3ccco3)CC2)cc1 (stereo not given) | inconclusive: 35.5 µM [inhibitor, partial curve, poor fit] |
| O=C(NCc1ccc2c(c1)OCO2)c1cccc(F)c1 | inconclusive: 100 µM [inhibitor, single point] |
| CCOC(=O)N1CCN(S(=O)(=O)c2ccc(C(=O)NNc3nc4c(C)cccc4s3)cc2)CC1 | inconclusive: 31.6 µM [inhibitor, single point] |
| CCCN(CC1CCOC1)S(=O)(=O)c1ccccc1F (stereo not given) | inactive |
| O=C(CSC1=Nc2ccccc2C2=NC(Cc3c[nH]c4ccccc34)C(=O)N12)NC1CCCCC1 (stereo not given) | inconclusive: 89.1 µM [inhibitor, single point] |
| C/C(=N/NS(=O)(=O)c1ccc(C)cc1)c1ccc2c(c1)OCO2 | inactive |
| O=C(CSc1nc2ccccc2c(=O)n1CCCN1CCOCC1)Nc1ccc(F)c(Cl)c1 | inconclusive: 112 µM [inhibitor, single point] |
| O=C(CCc1nc(-c2ccc(F)cc2)no1)Nc1cccc(S(=O)(=O)NC2=NCCC2)c1 | inconclusive: 50.1 µM [inhibitor, single point] |
| COc1cccc2nc3cc(C)c(C)cc3nc12 | inconclusive: 31.6 µM [inhibitor, partial curve, poor fit] |
| CCOC(=O)C1=C(C)c2ccccc2N(C(=O)OC)C1(C)C(=O)OCC (stereo not given) | inconclusive: 50.1 µM [inhibitor, partial curve, poor fit] |
| Cc1ccc2[nH]cc(C(C(=O)O)N3CCc4ccccc4C3)c2c1 (stereo not given) | inconclusive: 50.1 µM [inhibitor, partial curve, poor fit] |
| COc1cc2c(cc1NC(=O)C(C)Sc1cccc[n+]1[O-])oc1ccccc12 (stereo not given) | inactive |
| Cc1ccc(S(=O)(=O)N2CCOC23CCN(C(=O)c2ccc(Cl)cc2Cl)CC3)cc1 | inconclusive: 44.7 µM [inhibitor, partial curve, poor fit] |
| CCOc1ccccc1C(=O)Nc1cc(OC)ccc1OC | inactive |
| CCOc1ccc(C(=O)C(C)OC(=O)Cn2[nH]c(=O)c3ccccc3c2=O)cc1 (stereo not given) | inactive |
| CC1CCCCC1NC(=O)C1CC1C (stereo not given) | inactive |
| CC1(C(=O)NS(=O)(=O)c2ccc(F)cc2F)CCN1C(=O)CC1CC1 (stereo not given) | inconclusive: 15.8 µM [inhibitor, full curve] |
| COc1ccc2oc(=O)c(C(=O)N3CCCCC3C)cc2c1 (stereo not given) | inactive |
| CC(C)c1cccc(Nc2ccc(S(N)(=O)=O)cc2[N+](=O)[O-])c1 | inconclusive: 44.7 µM [inhibitor, partial curve, poor fit] |

| SMILES | Potency |
| --- | --- |
| O=C1NC[C@@H](CCCCN2C[C@H](Cc3ccc(O)cc3)N(CCc3ccccc3)C(=O)C2=O)N(Cc2ccccc2)C1=O | inconclusive: 141 µM [inhibitor, single point] |
| COc1ccc(/C=C/c2ccc3c(c2)C(=O)N2C[C@@H](NC(=O)CC(C)(C)CC(=O)O)C[C@H]2C(=O)N3)cc1 | inconclusive: 50.1 µM [inhibitor, partial curve] |
| COc1cc(/C=N/NS(=O)(=O)c2ccc(C)c([N+](=O)[O-])c2)cc([N+](=O)[O-])c1O | inconclusive: 31.6 µM [inhibitor, partial curve] |
| COc1cc(C2NC(=O)C(C#N)=C(S)N2c2ccc(C)cc2)ccc1OC(C)C (stereo not given) | inconclusive: 3.16 µM [inhibitor, full curve, poor fit] |
| O=C(CNC(=O)c1[nH]cnc1C(=O)NC(c1ccccc1)c1ccccc1)OCc1ccccc1 | inactive |
| CC(C)N(CCO)Cc1nc(N2CCOCC2)c2cc(Cl)ccc2n1 | inconclusive: 2.24 µM [inhibitor, full curve, poor fit] |
| COc1cccc(C(c2sc3nc(-c4ccco4)nn3c2O)N2CCOCC2)c1 (stereo not given) | inconclusive: 7.94 µM [inhibitor, full curve, poor fit] |
| COc1ccc(-n2c(Cc3cccn3C)nnc2SCC(=O)NCc2ccc(F)cc2)cc1 | inactive |
| Cc1ccccc1[C@H]1C[C@@H](O)[C@@H](O)[C@@H]1NC(=O)c1nc2ccccc2s1 | active: 44.7 µM |
| COc1cc(/C=C(\C#N)C(=O)Nc2ccccc2C(=O)O)cc(Cl)c1OC(C)C | inconclusive: 79.4 µM [inhibitor, partial curve, poor fit] |
| CCOC(=O)C(C)(C)Sc1nc2c(cnn2-c2ccc(C)cc2)c(=O)[nH]1 | inconclusive: 44.7 µM [inhibitor, partial curve, poor fit] |
| COc1ccc(N2C(=O)C(C)CS2(=O)=O)cc1S(=O)(=O)Nc1ccc(Cl)cc1 (stereo not given) | inconclusive: 0.282 µM [inhibitor, single point] |
| CCCCC12CN3CCN(CC(C3)/C1=N\NC(=S)NC)C2 | inconclusive: 35.5 µM [inhibitor, partial curve, poor fit] |
| COc1ccc2c(c1OC)C(=O)OC2Nc1nc(-c2cc3cc(Br)ccc3oc2=O)cs1 (stereo not given) | inconclusive: 39.8 µM [inhibitor, partial curve, poor fit] |
| Nc1cc(N)nc(SCCN2CCCCC2)n1 | inconclusive: 31.6 µM [inhibitor, partial curve, poor fit] |
| O=C(O)c1ccccc1-n1c(-c2ccccc2)cc2c1CCCC2=O | inconclusive: 25.1 µM [inhibitor, single point] |
| S=c1[nH]nc(Cc2n[nH]c(=S)n2-c2ccccc2)n1-c1ccccc1 | inactive |
| O=C(O)CNS(=O)(=O)c1ccccc1 | inconclusive: 44.7 µM [inhibitor, partial curve, poor fit] |
| CCOC(=O)CC(=O)CSc1nc2c(cc1C#N)CCCCC2 | inconclusive: 79.4 µM [inhibitor, single point] |
| CCOc1ccc(Cl)cc1-c1cc(C(=O)Nc2ccc(OC)nc2)[nH]n1 | inactive |
| CCCC(=O)Nc1ccc(CNCc2ccc(F)cc2F)cc1 | inconclusive: 112 µM [inhibitor, single point] |
| Cc1ccc2[nH]c(C(=O)Nc3c(C)n(C)n(-c4ccccc4)c3=O)cc2c1 | inactive |

| SMILES | Potency |
| --- | --- |
| O=C(C1COc2ccccc2O1)N1CCN(c2nc3c(F)cccc3s2)CC1 (stereo not given) | inconclusive: 141 µM [inhibitor, partial curve, poor fit] |
| CN1C(=O)c2ccccc2N2C(=O)CCC12C(=O)Nc1ccccc1F (stereo not given) | inactive |
| COc1ccc(Nc2cc(C)c3cc(C)ccc3n2)cc1 | active: 17.8 µM |
| COc1cc(/C=N/NC(=O)CCn2nnc3ccccc32)ccc1O | inactive |
| COc1ccc(-c2cc(C(=O)N3CCN(CC(=O)N(C)C)CC3)c3ccccc3n2)cc1 | inconclusive: 56.2 µM [inhibitor, partial curve, poor fit] |
| N#Cc1c(SCC(N)=O)nc2c(c1C(F)(F)F)CCCC2 | inactive |
| O=C(CC1C(=O)NCCN1C(=O)Nc1ccc(C(F)(F)F)cc1)Nc1ccc(F)cc1 (stereo not given) | inconclusive: 126 µM [inhibitor, single point] |
| Cc1cc(C)nc(Nc2cccc(C(F)(F)F)c2)n1 | inconclusive: 35.5 µM [inhibitor, partial curve, poor fit] |
| COc1ccc(N/C=C2/CCCCC2=O)cc1 | inconclusive: 56.2 µM [inhibitor, partial curve, poor fit] |
| Cc1cc(C)cc(-n2c3nc4ccccc4nc3c3c(=O)n(Cc4ccco4)cnc32)c1 | inconclusive: 39.8 µM [inhibitor, partial curve, poor fit] |
| CSc1cccc(NC(=O)CCc2ncc(-c3ccccc3)o2)c1 | inactive |
| COc1cccc(OC)c1OCC(O)CN1CCN(c2ccccc2F)CC1 (stereo not given) | inconclusive: 44.7 µM [inhibitor, partial curve, poor fit] |
| Cc1cccc(/C=N/NC(=O)c2cc(-c3cccnc3)nc3ccccc23)c1 | inactive |
| CCc1c(C)nc2n(c1=O)CN(Cc1cccnc1)CN2c1ccc(F)cc1 | inactive |
| COCCOc1cc(NC(=O)CS(=O)(=O)CC(=O)N(C)C)c(Cl)cc1Cl | inconclusive: 112 µM [inhibitor, single point] |
| O=C(NCCN1CCOCC1)c1ccccc1N1C(=O)[C@@H]2Cc3c([nH]c4ccccc34)C(c3ccc(F)cc3)N2C1=O (stereo not given in full) | inconclusive: 39.8 µM [inhibitor, partial curve, poor fit] |
| CC(C)(CO)NCc1cccc2ccccc12 | inactive |
| COC(=O)c1ccccc1-c1ccc(C(c2c(C)[nH][nH]c2=O)c2c(C)[nH][nH]c2=O)o1 | inconclusive: 3.98 µM [inhibitor, full curve, poor fit] |
| CCCCCCC(C)NCc1cccc2ccccc12 (stereo not given) | inconclusive: 5.62 µM [inhibitor, full curve, poor fit] |
| O=C(NN(c1ccccc1)c1ccccc1)c1cccc[n+]1[O-] | inconclusive: 0.224 µM [inhibitor, full curve, poor fit] |
| CC(C)(C)c1cc[n+](-c2[nH]c(=O)sc2/C=N/NC([S-])=Nc2ccccc2)cc1 | inconclusive: 44.7 µM [inhibitor, partial curve, poor fit] |

A few values from the list:
For Potency, CC(C)(C)c1cc[n+](-c2[nH]c(=O)sc2/C=N/NC([S-])=Nc2ccccc2)cc1 shows inconclusive: 44.7 µM [inhibitor, partial curve, poor fit]
For Potency, Cc1cc(C)nc(Nc2cccc(C(F)(F)F)c2)n1 shows inconclusive: 35.5 µM [inhibitor, partial curve, poor fit]
For Potency, CSc1cccc(NC(=O)CCc2ncc(-c3ccccc3)o2)c1 shows inactive
For Potency, O=C(NN(c1ccccc1)c1ccccc1)c1cccc[n+]1[O-] shows inconclusive: 0.224 µM [inhibitor, full curve, poor fit]
For Potency, Cc1cccc(/C=N/NC(=O)c2cc(-c3cccnc3)nc3ccccc23)c1 shows inactive
